These are yes or no findings as the source states them, for the method shown. Binding seen in cells or lysates may run through a third protein. These calls come from enrichment with a bait or labelling near it, and not all partners need be listed.

This test concerns the target T1, Enp1-TAP (S. cerevisiae) (UniProt P38333).
T1 sequence: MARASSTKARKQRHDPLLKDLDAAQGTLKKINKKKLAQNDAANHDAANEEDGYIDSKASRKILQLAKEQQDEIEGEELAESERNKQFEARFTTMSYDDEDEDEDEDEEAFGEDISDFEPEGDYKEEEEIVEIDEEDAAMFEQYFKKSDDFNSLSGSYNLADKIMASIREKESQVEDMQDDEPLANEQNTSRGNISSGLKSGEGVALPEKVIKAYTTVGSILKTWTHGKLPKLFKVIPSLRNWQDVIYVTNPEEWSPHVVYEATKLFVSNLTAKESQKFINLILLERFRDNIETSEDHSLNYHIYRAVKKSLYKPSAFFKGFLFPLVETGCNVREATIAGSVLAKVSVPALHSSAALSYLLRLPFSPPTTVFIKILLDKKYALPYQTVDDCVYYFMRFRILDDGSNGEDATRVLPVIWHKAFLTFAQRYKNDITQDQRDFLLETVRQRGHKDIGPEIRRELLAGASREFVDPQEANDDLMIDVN
As to the kind of experiment: affinity purification with mass spectrometry; Enp1-TAP captured from yeast extract on rabbit IgG Dynabeads, TEV elution, pre-ribosomal particles pelleted through a sucrose cushion; excised gel bands and the whole sample by LC-MS/MS; cells with Bud23 (AJY2665) or depleted of Bud23-AID (AJY4395, 0.5 mM auxin, 2 hours); 50 mM Tris-HCl pH 7.6, 100 mM KCl, 5 mM MgCl2, 0.1% TritonX-100, 4°C.

B1: Slx9 (protein, UniProt P53251 1-210)
chain: MVAKKRNTLRSKVSARNSQNFGPDVANNGILDESYDIESDPRAFLHQPKETKKEKLLNRQNTFLSNLKGKSTLNDGIAANFDGISKSSIRRRKRKLREELKPRMQDLLTSLEQEKDLRGIIENSSKDMNNDDDIDMDSKIRFVDTKEMNLKKIEPGSVRIKKNQPNIRNQKGAKALAANETARFNQVLTNQDFQKNPFGALREVIKLQKQ
In the case of B1, the binding result is listed as “binds”.

B2: Rio1 (protein, UniProt Q12196 1-484)
chain: MSLEDKFDSLSVSQGASDHINNQLLEKYSHKIKTDELSFSRAKTSKDKANRATVENVLDPRTMRFLKSMVTRGVIADLNGCLSTGKEANVYHAFAGTGKAPVIDEETGQYEVLETDGSRAEYAIKIYKTSILVFKDRERYVDGEFRFRNSRSQHNPRKMIKIWAEKEFRNLKRIYQSGVIPAPKPIEVKNNVLVMEFLSRGNGFASPKLKDYPYKNRDEIFHYYHTMVAYMRLLYQVCRLVHADLSEYNTIVHDDKLYMIDVSQSVEPEHPMSLDFLRMDIKNVNLYFEKMGISIFPERVIFQFVISETLEKFKGDYNNISALVAYIASNLPIKSTEQDEAEDEIFRSLHLVRSLGGLEERDFDRYTDGKFDLLKSLIAHDNERNFAASEQFEFDNADHECSSGTEEFSDDEEDGSSGSEEDDEEEGEYYDDDEPKVLKGKKHEDKDLKKLRKQEAKDAKREKRKTKVKKHIKKKLVKKTKSKK
In the case of B2, the binding result is on record as “binds”.

B3: Noc4 (protein, UniProt Q06512 1-552)
chain: MVLLISEIKDIAKRLTAAGDRKQYNSIIKLINELVIPENVTQLEEDETEKNLRFLVMSLFQIFRKLFSRGDLTLPSSKKSTLEKEQFVNWCRKVYEAFKTKLLAIISDIPFETSLGLDSLDVYLQLAELESTHFASEKGAPFFPNKTFRKLIIALWSSNMGEIEDVKSSGASENLIIVEFTEKYYTKFADIQYYFQSEFNQLLEDPAYQDLLLKNVGKWLALVNHDKHCSSVDADLEIFVPNPPQAIENESKFKSNFEKNWLSLLNGQLSLQQYKSILLILHKRIIPHFHTPTKLMDFLTDSYNLQSSNKNAGVVPILALNGLFELMKRFNLEYPNFYMKLYQIINPDLMHVKYRARFFRLMDVFLSSTHLSAHLVASFIKKLARLTLESPPSAIVTVIPFIYNLIRKHPNCMIMLHNPAFISNPFQTPDQVANLKTLKENYVDPFDVHESDPELTHALDSSLWELASLMEHYHPNVATLAKIFAQPFKKLSYNMEDFLDWNYDSLLNAESSRKLKTLPTLEFEAFTNVFDNEDGDSEASSQGNVYLPGVAW
As for B3, the binding result was “binds”.

B4: Rrp12 (protein, UniProt Q12754 1-1228)
chain: MDQDKVAFLLELEDKLAKIRSQVNSKLENQKHIAIILTAVEENIAGQATNDVSKNIVNYIISFMSLLDQAVDPSTHEIKDIQLASSSTYLLDLIFHYSPKVLLRSKFSEILTKIAPCITAEKANAPLIRAAIGCLESLLIAQDAQAWNNTYDLNVTPKRGLQGILELSLDVRPKVRKRALDAVHAVLLNPPVAPTAEHVAAVFVADFCDKQLAGILNDLSNLSNKQLKAQKTKEDINASVMRSLRLITSVVSTGQWPSSQIEPLCDVLLGVTKSSEQYLVSASFECFESMFKTMAETTISSGLAENKYLRVLDTIFALKPSNVDTLLTKSWIAVVIKGMSTYATHQPLKALRKIPGVFHIMCTYLASETPEVYQAASQCLISILSESVKDDLLLYTPSVDEKVFKNVDEIISQIAKTFIDFLSIRYSHCSREILKILVAAFNKFRYRSNPHFLKSLKIVDTWRVNEEQFMDLRNEIELVIGASISAMGPEMILAEAPLNLDNPSSERPGRAWLLPLIRDYTKNANLATFQNELAPYIKSFQSKFDKVPEESIQLRVFQTIVDQIWSTLPRFCELPMDLRESFTDEFASELSSLLYSEVELRTTICHALKVLAESNVSYAEESSSHNVLLLQRFPISEAQKNIEYLSTKSTNLLAVLFNVYTQTTPNARSYILETIDQYLKITSKEDLEKTFNNVCGLLKNSMNEESSGNVNKEKKKPQLTATLLDLIICMITYLPVSSYSALFSMFSLTVNSADALIQKRAYRIITKLSELKSGSTAVAQFISDIENVMVDSASSVQTSAKAARLTAIKTIVELLPLDHLDFIVRTVAEVILSTKDVNEKSRETAFDTLICMGRKMNEPNGIIKLFQIPGYDPTTPDQSSSISEFFKIISAGLIGESQHMVSSSITGYACLVFEFKNELDSGILMDIYDTIELYLTSNSREIVKSAIGFTKVCVLGLPEELMRPKVPELLLKLLRWSHEHTGHFKAKVKHIIERLIRRFGYDYIEANFPEEDRRLLTNIRKMRNRNKRKDEEVTTGVSDVAATKGSRFMSAFDEAVYGSDEENDNGSDQEENVAGGKMKNGAKQFIVESGDNPLDLLDSQTLAHISSTRPKKFNKNQNRARFNDDAFNFDSEGKLVVKGQPKPSTNVDDPLSAVTSGINAYLEAVKSGPVRGQRNKLKFRKNGKDSDEFGDDDDGEKDSRLMRGRVNQGNKIGKHNKKGPKFKSRKKL
Consider B4, for which the binding entry is “binds”.

B5: Mrd1 (protein, UniProt Q06106 1-887)
chain: MSRIIVKGLPVYLTDDNLREHFTKRLRQKHSHQAVNGSGPDLITDVKILRDRNGESRRFGFIGYRNEEDAFDAVEYFNGSFINTSKIEVSMAKSFADPRVPQPMKEKRREALKRFREKEEKLLQEENRKKKKVDENKHSNIDDEIRKNKQLQEFMETMKPSSQVTSWEKVGIDKSIEDEKLKREEEDSSVQGNSLLAHALALKEENNKDEAPNLVIENESDDEYSALNRNRDEDQEDAGEEEKMISISNLKDTDIGLVNDDANSDEKENEKRRNLAQDEKVSDLDWFKQRRVRIKESEAETREKSSSYATEQNESLDTKKEEQPERAVPQKTDEELAIEKINQTGRLFLRNILYTSKEEDFRKLFSPFGELEEVHVALDTRTGQSKGFAYVLFKDSKNAVNAYVELDKQIFQGRLLHILPGEEKKSHRLDEFDLKNMPLKKQKELKRKAAASRQTFSWNSLYMNQDAVLGSVAAKLGLEKSQLIDAENSSSAVKQALAEAHVIGDVRKYFESKGVDLTKFSQLKSTNQRDDKVILVKNFPFGTTREELGEMFLPYGKLERLLMPPAGTIAIVQFRDTTSARAAFTKLSYKRFKDGIIYLERGPKDCFTKPAEADDLINNTSAKEEENPVEVKPSSNDLMEANKDVTEGSSNAHDEDVIDGPTVSIFIKNLNFSTTNQNLTDRFKVFTGFVVAQVKTKPDPKHQGKTLSMGFGFVEFRTKEQANAVIAAMDGTVIDGHKIQLKLSHRQASQSGNTKTKSNKKSGKIIVKNLPFEATRKDVFELFNSFGQLKSVRVPKKFDKSARGFAFVEFLLPKEAENAMDQLHGVHLLGRRLVMQYAEEDAVDAEEEIARMTKKVRKQVATNEMAALRNGGGRKKLDVDDEENEGF
In the case of B5, the binding result is listed as “binds”.

B6: Bfr2 (protein, UniProt Q06631 1-534)
chain: MEKSLADQISDIAIKPVNKDFDIEDEENASLFQHNEKNGESDLSDYGNSNTEETKKAHYLEVEKSKLRAEKGLELNDPKYTGVKGSRQALYEEVSENEDEEEEEEEEEEKEEDALSFRTDSEDEEVEIDEEESDADGGETEEAQQKRHALSKLIQQETKQAINKLSQSVQRDASKGYSILQQTKLFDNIIDLRIKLQKAVIAANKLPLTTESWEEAKMDDSEETKRLLKENEKLFNNLFNRLINFRIKFQLGDHITQNEEVAKHKLSKKRSLKELYQETNSLDSELKEYRTAVLNKWSTKVSSASGNAALSSNKFKAINLPADVQVENQLSDMSRLMKRTKLNRRNITPLYFQKDCANGRLPELISPVVKDSVDDNENSDDGLDIPKNYDPRRKDNNAIDITENPYVFDDEDFYRVLLNDLIDKKISNAHNSESAAITITSTNARSNNKLKKNIDTKASKGRKLNYSVQDPIANYEAPITSGYKWSDDQIDEFFAGLLGQRVNFNENEDEEQHARIENDEELEAVKNDDIQIFG
On to B6, for which the binding result was “binds”.

B7: Lcp5 (protein, UniProt P40079 1-357)
chain: MSELNALLKDINGSLTATSESLERLSGIYSNSATDEIPESNQLHEHLFYDAKKPAEKVSLLSLKNGSMLGYINSLLMLIGNRLDDECKDPSAMDARERSIQHRVVLERGVKPLEKKLAYQLDKLTRAYVKMEKEYKDAEKRALEKSTLVNHSGNDDSEDDESSEDEIAYRPNTSGIINTNKKSSAYRVEETAKQENGEENDDNETGVYKPPKITAVLPPQQTHFEDRFDAREHKDRSNKSRMQAMEEYIRESSDQPDWSASIGADIVNHGRGGIKSLRDTEKERRVTSFEEDNFTRLNITNKAEKRKQKQRERNARMNVIGGEDFGIFSSKRKLEDSTSRRGAKKTRSAWDRAQRRL
B7: the binding result is “binds”.

B8: Utp2 (endogenous) (protein, UniProt Q99207 1-810)
chain: MAGSQLKNLKAALKARGLTGQTNVKSKNKKNSKRQAKEYDREEKKKAIAEIREEFNPFEIKAARNKRRDGLPSKTADRIAVGKPGISKQIGEEQRKRAFEARKMMKNKRGGVIDKRFGERDKLLTEEEKMLERFTRERQSQSKRNANLFNLEDDEDDGDMFGDGLTHLGQSLSLEDELANDEEDFLASKRFNEDDAELQQPQRKKTKAEVMKEVIAKSKFYKQERQKAQGIMEDQIDNLDDNFEDVMSELMMTQPKKNPMEPKTDLDKEYDIKVKELQLDKRAAPSDRTKTEEEKNAEAEEKKRELEQQRLDRMNGMIELEEGEERGVEDLDDGFWENEEDYEDDNDGIADSDDDIKFEDQGRDEGFSQILKKKNISISCPRTHDALLDQVKKLDLDDHPKIVKNIIKAYQPKLAEGNKEKLGKFTAVLLRHIIFLSNQNYLKNVQSFKRTQNALISILKSLSEKYNRELSEECRDYINEMQARYKKNHFDALSNGDLVFFSIIGILFSTSDQYHLVITPALILMSQFLEQIKFNSLKRIAFGAVLVRIVSQYQRISKRYIPEVVYFFQKILLTFIVEKENQEKPLDFENIRLDSYELGLPLDVDFTKKRSTIIPLHTLSTMDTEAHPVDQCVSVLLNVMESLDATISTVWKSLPAFNEIILPIQQLLSAYTSKYSDFEKPRNILNKVEKLTKFTEHIPLALQNHKPVSIPTHAPKYEENFNPDKKSYDPDRTRSEINKMKAQLKKERKFTMKEIRKDAKFEARQRIEEKNKESSDYHAKMAHIVNTINTEEGAEKNKYERERKLRGGKK
Turning to B8, the binding result was “binds”.
